Values joined by “and” are separate entries in the source; they are usually repeats but may differ in a detail not shown here. Equal values may be shown once. The shares of active, inactive and inconclusive entries below differ from those in the screen. For some of these results: Potencies beside an inconclusive call are fits to weak or partial responses and may not hold up. Active and inactive are the calls of the source. Calls follow the shape of the dose curve; as a rule, active = well fitted curve in the direction sought with a large enough effect; inconclusive = small, poorly fitted or top-dose-only effect, or another doubt; inactive = no such curve, though single readings can be large; an effect the other way counts as inactive or inconclusive.
Tests used:
[1] = Quantitative High-Throughput drug screen in 47 multiple myeloma cell lines against the NCATS MIPE library collection: FR4_PLB cell viability assay (AID 1918924; also: nearly all actives have a fitted effect of over 35% in size)
Outline: (§1)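 qHTS of the MIPE 4.0 collection: 500 myeloma cells/well, 48 h drug exposure at 37C in 5% CO2, then CellTiter-Glo for 5 min at room temperature before luminescence reading.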

[2] = Quantitative High-Throughput drug screen in 47 multiple myeloma cell lines against the NCATS MIPE library collection: AMO1_DSMZ cell viability assay (AID 1918927; also: nearly all actives have a fitted effect of over 30% in size; also: potency is read from the fitted curve at half-maximal effect)
Outline: (§2)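 Primary qHTS used for cherry-picking: cells at 500/well, library compounds for 48 h (37C, 5% CO2), luminescent ATP assay.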

[3] = Quantitative High-Throughput drug screen in 47 multiple myeloma cell lines against the NCATS MIPE library collection: ARP1_JJKsccF8 cell viability assay (AID 1918928; also: nearly all actives have a fitted effect of over 40% in size; also: potency is read from the fitted curve at half-maximal effect)
Outline: (§3)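 Each line was plated at 500 cells/well and treated 48 h with library drugs. Viability came from CellTiter-Glo luminescence relative to DMSO and cell-free medium controls.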

[4] = Quantitative High-Throughput drug screen in 47 multiple myeloma cell lines against the NCATS MIPE library collection: ARD_JJKsccE7 cell viability assay (AID 1918929; also: potency is read from the fitted curve at half-maximal effect); conditions: ARD myeloma cell line viability, CellTiter-Glo, 48 h; viability: at 45.8 µM (top of the series)
Outline: as §2

[5] = Quantitative High-Throughput drug screen in 47 multiple myeloma cell lines against the NCATS MIPE library collection: KMM1_JCRB cell viability assay (AID 1918960); conditions: KMM1 myeloma viability, CellTiter-Glo ATP luminescence, 48 h; viability (% of DMSO): at 45.8 µM (top of the series); also: nearly all actives have a fitted effect of over 30% in size; also: potency is read from the fitted curve at half-maximal effect;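 as to viability (% of DMSO): 100% = DMSO-treated cells and 0% = medium-only wells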
Outline: as §3

[6] = Quantitative High-Throughput drug screen in 47 multiple myeloma cell lines against the NCATS MIPE library collection: Karpas417_ECACC cell viability assay (AID 1918961); conditions: Karpas417 myeloma viability, CellTiter-Glo ATP luminescence, 48 h; viability (% of DMSO): at 45.8 µM (top of the series); also: potency is read from the fitted curve at half-maximal effect
Outline: (§4)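 Luminescent ATP measurement with CellTiter-Glo gives viability, scaled between DMSO-only wells (100%) and media-only wells (0%). Cells, 500 per well, faced library compounds for 48 hours at 37C.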

[7] = Quantitative High-Throughput drug screen in 47 multiple myeloma cell lines against the NCATS MIPE library collection: KHM11_PLB cell viability assay (AID 1918962); conditions: KHM11 myeloma cell viability, CellTiter-Glo ATP luminescence, 48 h; viability, % of DMSO control: at 45.8 µM (top of the series); also: nearly all actives have a fitted effect of over 35% in size; also: potency is read from the fitted curve at half-maximal effect
Outline: as §1

[8] = Quantitative High-Throughput drug screen in 47 multiple myeloma cell lines against the NCATS MIPE library collection: JIM3_ECACC cell viability assay (AID 1918963; also: potency is read from the fitted curve at half-maximal effect; nearly all actives have a fitted effect of over 35% in size)
Outline: as §1

[9] = Quantitative High-Throughput drug screen in 47 multiple myeloma cell lines against the NCATS MIPE library collection: JIM1_ECACC cell viability assay (AID 1918964; also: potency is read from the fitted curve at half-maximal effect); conditions: JIM1 myeloma viability, CellTiter-Glo ATP luminescence, 48 h; viability (% of DMSO): at 45.8 µM (top of the series)
Outline: as §2

[10] = Quantitative High-Throughput drug screen in 47 multiple myeloma cell lines against the NCATS MIPE library collection: INA6_PLB cell viability assay (AID 1918965; also: nearly all actives have a fitted effect of over 55% in size; also: potency is read from the fitted curve at half-maximal effect); conditions: INA6 myeloma viability, CellTiter-Glo ATP luminescence, 48 h; viability (% of control): at 45.8 µM (top of the series)
Outline: as §4

[11] = Quantitative High-Throughput drug screen in 47 multiple myeloma cell lines against the NCATS MIPE library collection: JJN3_DSMZ cell viability assay (AID 1918966; also: nearly all actives have a fitted effect of over 50% in size; also: potency is read from the fitted curve at half-maximal effect); conditions: JJN3 myeloma cells viability, CellTiter-Glo ATP, 48 h; viability, % of DMSO: at 45.8 µM (top of the series)
Outline: as §2

[12] = Quantitative High-Throughput drug screen in 47 multiple myeloma cell lines against the NCATS MIPE library collection: H1112_PLB cell viability assay (AID 1918967; also: nearly all actives have a fitted effect of over 30% in size; also: potency is read from the fitted curve at half-maximal effect)
Outline: as §2

[13] = Quantitative High-Throughput drug screen in 47 multiple myeloma cell lines against the NCATS MIPE library collection: Karpas25_ECACC cell viability assay (AID 1918968; also: nearly all actives have a fitted effect of over 35% in size; also: potency is read from the fitted curve at half-maximal effect); conditions: Karpas25 myeloma viability, CellTiter-Glo ATP, 48 h; viability (% of control): at 45.8 µM (top of the series)
Outline: as §2

[14] = Quantitative High-Throughput drug screen in 47 multiple myeloma cell lines against the NCATS MIPE library collection: KMS27_JCRB cell viability assay (AID 1918970); conditions: KMS27 myeloma cells, CellTiter-Glo ATP viability, 48 h; viability (% of DMSO): at 45.8 µM (top of the series); also: nearly all actives have a fitted effect of over 30% in size; also: potency is read from the fitted curve at half-maximal effect
Outline: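 Each line is seeded at 500 cells per well and treated with library compounds for 48 hours under 37 °C, 5% CO2. CellTiter-Glo is then added for 5 min at room temperature before median relative luminescence is recorded.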

[15] = Quantitative High-Throughput drug screen in 47 multiple myeloma cell lines against the NCATS MIPE library collection: Karpas620_DSMZ cell viability assay (AID 1918959); conditions: Karpas620 myeloma viability, CellTiter-Glo ATP luminescence, 48 h; viability (% of DMSO): at 45.8 µM (top of the series); also: nearly all actives have a fitted effect of over 30% in size; also: potency is read from the fitted curve at half-maximal effect
Outline: as §1

[16] = Quantitative High-Throughput drug screen in 47 multiple myeloma cell lines against the NCATS MIPE library collection: Delta47_JCRB cell viability assay (AID 1918925; also: nearly all actives have a fitted effect of over 45% in size; also: potency is read from the fitted curve at half-maximal effect); conditions: Delta47 myeloma viability, CellTiter-Glo ATP, 48 h; viability (% of DMSO): at 45.8 µM (top of the series)
Outline: as §2

[17] = Quantitative High-Throughput drug screen in 47 multiple myeloma cell lines against the NCATS MIPE library collection: EJM_DSMZ cell viability assay (AID 1918926; also: nearly all actives have a fitted effect of over 30% in size; also: potency is read from the fitted curve at half-maximal effect)
Outline: as §2

Row | Structure (SMILES) | Potency [1] | Potency [2] | Potency [3] | Potency [4] | Potency [5] | Potency [6] | Potency [7] | Potency [8] | Potency [9] | Potency [10] | Potency [11] | Potency [12] | Potency [13] | Potency [14] | Potency [15] | Potency [16] | Potency [17] | viability (% of DMSO) [16]
1 | CC1=C(C)C(=O)C(C(CCCCCC(=O)O)c2ccccc2)=C(C)C1=O (stereo not drawn) | inactive | inconclusive: 23.5 µM [cytotoxic, single point] | inconclusive: 0.0047 µM [rising, full curve] | inconclusive: 29.6 µM [cytotoxic, single point] | inconclusive: 0.0026 µM [rising, full curve, poor fit] | inconclusive: 59 µM [cytotoxic, partial curve, poor fit] | inconclusive: 0.0148 µM [rising, full curve, poor fit] | inconclusive: 33.2 µM [cytotoxic, single point] | inconclusive: 0.0017 µM [rising, full curve, poor fit] | inconclusive: 0.935 µM [cytotoxic, full curve, poor fit] | inconclusive: 0.0023 µM [rising, full curve] | inactive | inconclusive: 16.6 µM [cytotoxic, partial curve] | inconclusive: 2.96 µM [rising, partial curve, poor fit] |  |  |  | 
2 | Cc1[nH]c(=O)c(C#N)cc1-c1ccc2nccn2c1 | inactive | inconclusive: 2.64 µM [rising, partial curve, poor fit] |  | inactive | inactive | inconclusive: 33.2 µM [cytotoxic, single point] | inactive |  | inactive | inconclusive: 2.64 µM [cytotoxic, full curve, poor fit] | inactive |  | inactive | inconclusive: 4.18 µM [rising, partial curve, poor fit] | inconclusive: 0.0235 µM [rising, full curve, poor fit] |  |  | 
3 | COc1ccc([C@@H]2CC(=O)c3c(O)cc(O[C@@H]4O[C@H](CO[C@@H]5O[C@@H](C)[C@H](O)[C@@H](O)[C@@H]5O)[C@@H](O)[C@H](O)[C@@H]4O)cc3O2)cc1O | inactive | inconclusive: 18.7 µM [rising, partial curve] |  |  | inactive | inconclusive: 1.9 nM [cytotoxic, full curve, poor fit] and inactive |  | inconclusive: 29.6 µM [cytotoxic, single point] | inactive and inconclusive: 332 nM [cytotoxic, full curve, poor fit] | inactive |  | inconclusive: 37.2 µM [cytotoxic, single point] | inconclusive: 0.001 µM |  | inactive |  |  | 
4 | O=C1CCc2ccc(OCCCCN3CCN(c4cccc(Cl)c4Cl)CC3)cc2N1 | inactive |  |  | inconclusive: 0.0023 µM [rising, full curve, poor fit] | inconclusive: 7.43 µM [cytotoxic, single point] | inconclusive: 16.6 µM [rising, partial curve, poor fit] | inconclusive: 37.2 µM [cytotoxic, single point] |  | inactive | inconclusive: 29.6 µM [cytotoxic, single point] | active: 18.7 µM | inconclusive: 20.9 µM [cytotoxic, partial curve] |  |  | inconclusive: 59 µM [cytotoxic, partial curve, poor fit] |  |  | 
5 | Oc1ccc2ccccc2c1SSc1c(O)ccc2ccccc12 |  |  | active: 23.5 µM |  | active: 23.5 µM |  | active: 20.9 µM |  | active: 14.8 µM | active: 5.9 µM |  |  |  | active: 18.7 µM |  | active: 16.6 µM | inconclusive: 23.5 µM [cytotoxic, partial curve, poor fit] | 
6 | CN(C)c1cc(NC(=O)CNC(C)(C)C)c(O)c2c1C[C@@H]1C[C@H]3[C@H](N(C)C)C(=O)C(C(N)=O)=C(O)[C@@]3(O)C(=O)C1=C2O |  |  | inactive |  |  | inactive | inactive |  | inconclusive: 2.96 µM [cytotoxic, full curve, poor fit] | inactive | inconclusive: 9.35 µM [cytotoxic, full curve, poor fit] |  | inconclusive: 4.69 µM [cytotoxic, partial curve, poor fit] |  | inactive | inactive | inactive | 
7 | OC(CN1CCC(Cc2ccc(F)cc2)CC1)c1ccc(Cl)cc1 (stereo not drawn) |  |  | inactive |  |  | inconclusive: 0.132 µM [rising, full curve, poor fit] | inconclusive: 0.187 µM [rising, full curve, poor fit] |  | inconclusive: 1.05 µM [cytotoxic, full curve, poor fit] | inconclusive: 11.8 µM [cytotoxic, full curve, poor fit] | inconclusive: 0.001 µM |  | inconclusive: 23.5 µM [cytotoxic, single point] |  |  | inactive | inconclusive: 20.9 µM [cytotoxic, single point] | 
8 | O=C(C=CC=Cc1ccc2c(c1)OCO2)N1CCCCC1 |  |  | inconclusive: 0.0012 µM [rising, full curve, poor fit] |  | inconclusive: 11.8 µM [cytotoxic, full curve, poor fit] | inconclusive: 33.2 µM [rising, single point] | inactive |  | inconclusive: 0.0093 µM [cytotoxic, full curve, poor fit] | inconclusive: 10.5 µM [rising, single point] | inactive |  | inconclusive: 1.66 µM [cytotoxic, full curve, poor fit] | inconclusive: 0.0023 µM [cytotoxic, full curve, poor fit] | inconclusive: 0.743 µM [cytotoxic, partial curve, poor fit] | inconclusive: 4.69 µM [cytotoxic, partial curve, poor fit] | inactive | 
9 | Clc1ccc2nsnc2c1NC1=NCCN1 |  | inconclusive: 0.0015 µM [rising, full curve] | inconclusive: 0.0037 µM [rising, full curve, poor fit] | inconclusive: 10.5 µM [rising, partial curve, poor fit] | inactive | inconclusive: 33.2 µM [rising, partial curve, poor fit] | inconclusive: 0.264 µM [rising, full curve, poor fit] |  | inconclusive: 0.372 µM [cytotoxic, full curve, poor fit] | inactive | inconclusive: 0.0023 µM [rising, full curve, poor fit] |  | inactive | inactive | inconclusive: 4.69 µM [rising, full curve] | inconclusive: 0.0017 µM [rising, full curve] |  | 
10 | O=c1c(-c2ccc(O)cc2)coc2cc(O[C@@H]3O[C@H](CO)[C@H](O)[C@H](O)[C@H]3O)ccc12 |  | inactive |  | inactive | inactive |  | inconclusive: 5.9 µM [rising, partial curve, poor fit] | inconclusive: 0.0059 µM [rising, full curve, poor fit] | inactive | inconclusive: 8.33 µM [rising, partial curve, poor fit] | inactive | inactive | inconclusive: 0.0019 µM [rising, full curve, poor fit] | inconclusive: 0.0012 µM [cytotoxic, full curve, poor fit] |  |  |  | inconclusive: 102% [cytotoxic]
11 | CC1(C)Cc2c(sc(NC(=S)NC(=O)c3ccccc3)c2C(=O)O)CO1 |  | inactive | inconclusive: 0.264 µM [rising, full curve, poor fit] | inconclusive: 10.5 µM [cytotoxic, partial curve, poor fit] | inconclusive: 5.9 µM [cytotoxic, full curve] | inconclusive: 10.5 µM [cytotoxic, full curve, poor fit] | inactive | inconclusive: 37.2 µM [cytotoxic, single point] | inactive | inconclusive: 37.2 µM [cytotoxic, single point] | inconclusive: 37.2 µM [cytotoxic, single point] | inconclusive: 33.2 µM [cytotoxic, single point] | inconclusive: 29.6 µM [cytotoxic, single point] | inconclusive: 9.35 µM [cytotoxic, partial curve, poor fit] |  | inconclusive: 20.9 µM [cytotoxic, partial curve, poor fit] | inconclusive: 13.2 µM [cytotoxic, partial curve, poor fit] | 
12 | CC(C)NCC(O)COc1ccc(CCOCC2CC2)cc1 (stereo not drawn) |  | inconclusive: 0.118 µM [cytotoxic, full curve, poor fit] | inconclusive: 4.18 µM [cytotoxic, partial curve, poor fit] | inconclusive: 0.166 µM [cytotoxic, full curve, poor fit] |  | inactive | inactive |  | inactive | inactive | inconclusive: 9.35 µM [cytotoxic, partial curve, poor fit] |  | inactive |  |  | inactive | inconclusive: 0.0012 µM [cytotoxic, full curve, poor fit] | 
13 | CNC[C@H](O)c1ccc(O)c(O)c1 |  | inactive | active: 15.2 µM | inactive | inactive | inconclusive: 0.0171 µM [rising, full curve, poor fit] | inactive |  | inconclusive: 38.2 µM [cytotoxic, partial curve, poor fit] | inconclusive: 8.55 µM [cytotoxic, full curve, poor fit] |  | inactive | active: 5.4 µM |  |  | inconclusive: 48.1 µM [cytotoxic, single point] | inconclusive: 34 µM [cytotoxic, partial curve] | 

Source: PubChem BioAssay (NCATS)
